Results as given in PubChem BioAssay AID1347076 (National Center for Advancing Translational Sciences (NCATS), 2019).
Among all 400,000 compounds or so, about 13,000 (3.2%) were called active. This list was built around the results that the source calls inconclusive (neither active nor inactive); the mix of calls is not that of the screen. Calls follow the shape of the dose curve; as a rule, active = well fitted cell-killing curve with a large enough effect; inconclusive = small, poorly fitted or top-dose-only effect, or effect the other way; inactive = flat fitted curve, though single readings scatter. Where the call is inconclusive, the potency comes from a doubtful curve fit. The source holds several records for some structures; these can differ, active in one and inactive in another.

Assay: qHTS assay for MDR1-selective chemotherapeutics: Primary screen using the drug-selected MDR subline cells KB-V1; also: nearly all actives have a fitted effect of over 60% in size
Details: KB-V1 MDR cells viability, CellTiter-Glo, 72 h; activity change, negative = cytotoxicity: at 46.1 µM (top of the series)
How it was run: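 Cytotoxicity via CellTiter-Glo luminescence after 72 h compound exposure at 37 degrees C. Cells: drug-selected KB-V1 line, DMEM phenol-red free plus 10% FBS. Compounds tested at multiple concentrations; normalized data fitted to concentration-effect curves.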
% is scaled to controls: 0 for no effect and ±100 for the full control effect; potency is read from the fitted curve at half-maximal effect.

SMILES	Potency	activity change, negative = cytotoxicity
CCOc1cc(CNCCSc2nnnn2C)cc(Br)c1OCc1ccc(F)cc1	active: 18.4 µM	–
CCC(C)C(=O)Nc1nc(-c2ccc3c(c2)NC(=O)CO3)cs1 (stereo unspecified)	–	inactive: -3.15%
COc1ccc(CN(C(=S)Nc2ccccc2)C2CC(=O)N(c3ccccc3)C2=O)cc1 (stereo unspecified)	active: 4.61 µM	–
O=S(=O)(N1CCCCC1)N1CCN(c2ccc(F)cc2)CC1	inconclusive: 18.4 µM [cytotoxic, single point]	–
CCSc1nc2ccccc2n1C(=O)/C=C\c1ccc(OC)c(OC)c1	inconclusive: 25.9 µM [cytotoxic, single point]	–
COc1cc2c(cc1OC)CN(C(=O)COc1ccccc1[N+](=O)[O-])CC2	inconclusive: 8.2 µM [cytotoxic, partial curve]	–
CC(=O)c1sc(-c2ccc(F)cc2)cc1NS(=O)(=O)c1ccc(C)cc1	inconclusive: 7.31 µM [rising, partial curve]	–
CCOC(=O)[C@H]1[C@H]2COc3ccc(Br)cc3[C@@H]2N2C(=O)CN(Cc3ccco3)C(=O)[C@@]12C	inconclusive: 4.11 µM [rising, full curve]	–
COC(=O)C1C2C=CC(C3CC23)C1C(=O)OCC(=O)c1ccc(OC)cc1 (stereo unspecified)	inconclusive: 11.6 µM [cytotoxic, partial curve, poor fit]	–
Cc1ccc(-c2cn3c(n2)sc2cc(C(=O)NCCCN4CCCCC4)ccc23)cc1	inconclusive: 20.6 µM [cytotoxic, partial curve]	–
CCCSc1nnc(CSc2nc3nc(C)cc(C)n3n2)o1	inconclusive: 18.4 µM [cytotoxic, partial curve, poor fit]	–
CCOc1ccc(S(=O)(=O)N(C)c2ccc(OCC(=O)Nc3nc4ccccc4s3)cc2)cc1	inconclusive: 13 µM [cytotoxic, single point]	–
CCn1nnnc1SCC(=O)N1c2ccccc2Sc2ccccc21	inconclusive: 9.2 µM [cytotoxic, partial curve, poor fit]	–
COc1ccc([N+](=O)[O-])cc1NC(=O)CSCc1ccccc1C	inconclusive: 20.6 µM [cytotoxic, partial curve]	–
CCN(C(=O)COC(=O)c1ccccc1NCCO)C1CCS(=O)(=O)C1 (stereo unspecified)	–	inactive: 29.8%
COc1cc(SC)ccc1C(=O)NCCOc1ccc(Cl)cc1	active: 20.6 µM	–
N/C(=N\OC(=O)c1ccc(OCC(F)(F)F)nc1)c1ccc(Cl)cc1	–	inconclusive: 34.2%
CCN1CCN(CCOc2ccc(Br)cc2C)CC1	–	inactive: 0%
Nc1sc2c(c1C(=O)c1ccccc1)CCCC2	inconclusive: 29.1 µM [cytotoxic, partial curve, poor fit]	–
O=C(c1ccc(S(=O)(=O)N2CCCCC2)cc1)N1CCN(CCN2C(=O)c3cccc4cccc(c34)C2=O)CC1	inconclusive: 2.06 µM [cytotoxic, full curve]	–
O=C(Nc1ccccc1Cl)c1ccc(-n2cccn2)c([N+](=O)[O-])c1	inconclusive: 16.4 µM [cytotoxic, partial curve, poor fit]	–
COc1ccc(Nc2nc(N)nc(CSC(=S)N3CCCCC3C)n2)cc1 (stereo unspecified)	inconclusive: 25.9 µM [cytotoxic, single point]	–
Cc1ccc(-c2nc(C#N)c(NCCN3CCCCC3)o2)cc1	active: 23.1 µM	–
COc1ccc(S(=O)(=O)N2CCCC(C(=O)Nc3ccc(OC)c(OC)c3)C2)cc1 (stereo unspecified)	inconclusive: 23.1 µM [cytotoxic, single point]	–

SMILES	Potency	activity change, negative = cytotoxicity
CS(=O)(=O)N(CC(=O)N1CCN(Cc2ccc3c(c2)OCO3)CC1)C1CCCCC1	active: 20.6 µM	–
C/C(=N/NC(=O)Cc1cccs1)c1ccco1	inconclusive: 20.6 µM [rising, single point]	–
CCn1c(SCc2nc3ccccc3s2)nnc1-c1cccs1	inconclusive: 8.2 µM [cytotoxic, partial curve, poor fit]	–
Cc1ccc(S(=O)(=O)c2cn(C)c3cc(N4CCCCCC4)c(F)cc3c2=O)cc1	–	inactive: -0.689%
COC(=O)c1ccc(COC(=O)c2ccc(SC)cc2OC)cc1	–	inactive: -2.23%
c1ccc(Oc2nnc(-c3cccs3)c3ccccc23)cc1	inconclusive: 20.6 µM [cytotoxic, single point]	–
CCCCN1CC[C@H]2C=CC[C@@H](C(=O)N3CCN(c4ccccc4)CC3)[C@H]2C1=O	inconclusive: 6.51 µM [cytotoxic, partial curve]	–
CC(C(=O)N1CCc2ccccc21)N1CCc2ccccc2C1 (stereo unspecified)	active: 14.6 µM	–
CCc1ccc(Nc2n[n+](-c3ccccc3)c(-c3cccc(Cl)c3Cl)s2)cc1	inconclusive: 18.4 µM [cytotoxic, partial curve, poor fit]	–
COc1ccnc(CSC(N)=Nc2cccc(C(F)(F)F)c2)c1	inconclusive: 18.4 µM [cytotoxic, single point]	–
COc1ccccc1-c1cc(NC(C)=O)c2ncc(-c3ccc(S(C)(=O)=O)cc3)n2c1	inconclusive: 23.1 µM [cytotoxic, partial curve, poor fit]	–
Cc1ccc(CN2C(=O)c3ccccc3C2c2nnnn2-c2ccc3c(c2)OCCO3)cc1 (stereo unspecified)	–	inactive: -14.1%
C(=C\c1ccccc1)/CN1CCN(C(c2ccnc3ccccc23)c2nnnn2C2CCCC2)CC1 (stereo unspecified)	active: 14.6 µM	–
COc1ccc(CNC(=O)Cc2csc(Nc3nc(=S)[nH]c4ccccc34)n2)cc1	inconclusive: 14.6 µM [cytotoxic, partial curve]	–
O=C(ONC1=NCCCCC1)c1ccc(Cl)cc1	–	inactive: 13.1%
O=C1CC(c2ccncc2)c2cc3c(cc2N1)OCO3 (stereo unspecified)	inconclusive: 18.4 µM [rising, single point]	–
Cc1noc(C)c1CSCC(=O)N(C)CC(=O)Nc1cccc(F)c1	inconclusive: 29.1 µM [cytotoxic, single point]	–
COC(=O)c1ccc(NC(=O)COc2coc(CN3CCc4ccccc43)cc2=O)cc1	–	inactive: 7.48%
CCOC(=O)N1CCN(C(=O)CCSc2ccc(Cl)cc2)CC1	active: 23.1 µM	–
CN1CCC(N(C)S(=O)(=O)c2ccc(NC(=O)COc3ccc([N+](=O)[O-])cc3)cc2)CC1	–	inactive: 3.88%
COC(=O)Cn1c(CN2CCN(C(=O)c3ccco3)CC2)nc2c1c(=O)n(C)c(=O)n2C	inconclusive: 18.4 µM [rising, partial curve]	–
CCc1cc(C)cc(OCCNC(=O)c2cncc(Br)c2)c1	inconclusive: 29.1 µM [cytotoxic, single point]	–
FC(F)(F)c1nnc(-c2ccccc2)nc1Sc1ccc(Cl)cc1	inconclusive: 29.1 µM [cytotoxic, single point]	–
CCOC(=O)[C@]12CCCC=C1N(Cc1ccco1)C(=O)[C@H](CC(=O)NCC1CCCCC1)C2	–	inactive: 0%

20 compounds from above, arranged by molar mass, ascending.
SMILES	Potency	activity change, negative = cytotoxicity
C/C(=N/NC(=O)Cc1cccs1)c1ccco1	inconclusive: 20.6 µM [rising, single point]	–
O=C(ONC1=NCCCCC1)c1ccc(Cl)cc1	–	inactive: 13.1%
O=C1CC(c2ccncc2)c2cc3c(cc2N1)OCO3 (stereo unspecified)	inconclusive: 18.4 µM [rising, single point]	–
c1ccc(Oc2nnc(-c3cccs3)c3ccccc23)cc1	inconclusive: 20.6 µM [cytotoxic, single point]	–
CC(C(=O)N1CCc2ccccc21)N1CCc2ccccc2C1 (stereo unspecified)	active: 14.6 µM	–
COc1ccnc(CSC(N)=Nc2cccc(C(F)(F)F)c2)c1	inconclusive: 18.4 µM [cytotoxic, single point]	–
COC(=O)c1ccc(COC(=O)c2ccc(SC)cc2OC)cc1	–	inactive: -2.23%
CCOC(=O)N1CCN(C(=O)CCSc2ccc(Cl)cc2)CC1	active: 23.1 µM	–
CCn1c(SCc2nc3ccccc3s2)nnc1-c1cccs1	inconclusive: 8.2 µM [cytotoxic, partial curve, poor fit]	–
CCc1cc(C)cc(OCCNC(=O)c2cncc(Br)c2)c1	inconclusive: 29.1 µM [cytotoxic, single point]	–
Cc1noc(C)c1CSCC(=O)N(C)CC(=O)Nc1cccc(F)c1	inconclusive: 29.1 µM [cytotoxic, single point]	–
FC(F)(F)c1nnc(-c2ccccc2)nc1Sc1ccc(Cl)cc1	inconclusive: 29.1 µM [cytotoxic, single point]	–
CCCCN1CC[C@H]2C=CC[C@@H](C(=O)N3CCN(c4ccccc4)CC3)[C@H]2C1=O	inconclusive: 6.51 µM [cytotoxic, partial curve]	–
CCc1ccc(Nc2n[n+](-c3ccccc3)c(-c3cccc(Cl)c3Cl)s2)cc1	inconclusive: 18.4 µM [cytotoxic, partial curve, poor fit]	–
COC(=O)c1ccc(NC(=O)COc2coc(CN3CCc4ccccc43)cc2=O)cc1	–	inactive: 7.48%
COc1ccc(CNC(=O)Cc2csc(Nc3nc(=S)[nH]c4ccccc34)n2)cc1	inconclusive: 14.6 µM [cytotoxic, partial curve]	–
Cc1ccc(CN2C(=O)c3ccccc3C2c2nnnn2-c2ccc3c(c2)OCCO3)cc1 (stereo unspecified)	–	inactive: -14.1%
COC(=O)Cn1c(CN2CCN(C(=O)c3ccco3)CC2)nc2c1c(=O)n(C)c(=O)n2C	inconclusive: 18.4 µM [rising, partial curve]	–
CCOC(=O)[C@]12CCCC=C1N(Cc1ccco1)C(=O)[C@H](CC(=O)NCC1CCCCC1)C2	–	inactive: 0%
C(=C\c1ccccc1)/CN1CCN(C(c2ccnc3ccccc23)c2nnnn2C2CCCC2)CC1 (stereo unspecified)	active: 14.6 µM	–

Remaining list, next part.

SMILES	Potency	activity change, negative = cytotoxicity
CSc1ncc(Cl)c(C(=O)Nc2ccc(S(=O)(=O)N3CCC(C)CC3)cc2)n1	–	inactive: -20.6%
O=C(Nc1ccc(N2CCOCC2)cc1)c1cc(-n2cnnc2)ccc1Cl	inconclusive: 29.1 µM [rising, single point]	–
COCCn1c(SC(C)C(=O)Nc2ncc(Cl)cc2Cl)nc2ccccc21 (stereo unspecified)	inconclusive: 6.51 µM [cytotoxic, partial curve]	–
Cc1ccc(Cn2c(C(=O)Nc3cccc(Cl)c3)cc3sccc32)cc1	inconclusive: 32.6 µM [cytotoxic, single point]	–
COCCn1c(SCC(=O)Nc2cccc(OC)c2)nnc1-c1ccccc1	inconclusive: 20.6 µM [cytotoxic, partial curve, poor fit]	–
C[C@@]12C(=O)N(CC3CC3)CC(=O)N1[C@H](C1CC1)[C@@H]1C(=O)N(c3ccccc3)C(=O)[C@@H]12	–	inactive: -6.58%
O=C(NCCn1cc(SCc2ccc(F)cc2)c2ccccc21)c1c(F)cccc1F	active: 18.4 µM	–
Cn1nc(C(=O)OCc2ccccc2F)c2ccccc2c1=O	inconclusive: 25.9 µM [cytotoxic, single point]	–
COC(=O)C1C(c2ccccc2)C(C(=O)OCc2ccco2)C1c1ccccc1 (stereo unspecified)	active: 13 µM	–
CC(OC(=O)CCCSc1nc2ccccc2s1)C(=O)NC(N)=O (stereo unspecified)	–	inactive: -4.42%
COc1cccc(CN2CCC2(C)C(=O)Nc2cccc(Oc3ccccc3)c2)c1F (stereo unspecified)	active: 7.31 µM	–
COc1cccc(C(=O)Nc2ccc(Cl)c(-c3nc4ccccc4[nH]3)c2)c1	–	inactive: -23.1%
CCOc1ccc(N2CC(NC(=O)c3ccc4ccccc4c3)CC2=O)cc1 (stereo unspecified)	–	inactive: -18.6%
Cc1ccnc(NC(=O)c2ccc(Cl)s2)c1	inconclusive: 1.3 µM [rising, full curve, poor fit]	–
COc1ccc(CC(=O)Nc2c3c(nn2-c2cccc(Cl)c2)CS(=O)(=O)C3)cc1	active: 16.4 µM	–
Cc1nc(CCNS(=O)(=O)c2cccnc2)cs1	inconclusive: 10.3 µM [rising, partial curve]	–
O=C(Nc1ccccc1)c1nc[nH]c1C(=O)NCCCCCCNC(=O)c1[nH]cnc1C(=O)Nc1ccccc1	inconclusive: 29.1 µM [cytotoxic, single point]	–
CCc1ccc2c(F)cccc2n1	–	inactive: 2.97%
CC(C)C[C@@H](CSc1ccc(Br)cc1)N1CCN(CC(C)C)CCC1=O	–	inactive: 4.87%
CN(CC(=O)Nc1ccccc1Br)C(=O)CCCSc1nc2ccccc2[nH]1	inconclusive: 14.6 µM [cytotoxic, partial curve]	–
COC(=O)c1ccc(NS(=O)(=O)c2ccc(-n3cccn3)cc2)cc1	inconclusive: 32.6 µM [rising, single point]	–
COc1cc(NC(=O)c2cc(-c3cccnc3)nc3ccc(Br)cc23)cc(OC)c1	–	inactive: -26.4%
COc1ccc(C)cc1S(=O)(=O)Nc1ccc(F)cc1	–	inactive: 6.34%
